The target of this experiment is T1, DnaB (BACTH fusions) (Myxococcus xanthus) (UniProt Q1D285).
T1 sequence: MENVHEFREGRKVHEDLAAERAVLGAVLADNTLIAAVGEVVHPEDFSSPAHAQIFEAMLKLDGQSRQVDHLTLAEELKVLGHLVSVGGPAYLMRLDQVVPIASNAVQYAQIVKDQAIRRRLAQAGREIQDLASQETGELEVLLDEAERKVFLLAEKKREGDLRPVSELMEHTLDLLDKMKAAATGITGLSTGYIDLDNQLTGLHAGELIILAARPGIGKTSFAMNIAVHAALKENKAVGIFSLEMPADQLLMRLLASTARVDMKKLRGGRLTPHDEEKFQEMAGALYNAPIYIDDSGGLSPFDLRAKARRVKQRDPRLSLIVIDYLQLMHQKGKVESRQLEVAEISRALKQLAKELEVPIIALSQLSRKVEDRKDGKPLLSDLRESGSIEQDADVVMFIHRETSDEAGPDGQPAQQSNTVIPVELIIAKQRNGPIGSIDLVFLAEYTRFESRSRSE
The experiment in a line: two-hybrid; BACTH (bacterial adenylate cyclase-based two-hybrid); proteins fused to T25 and T18; blue colonies: interaction, white: none; two biological replicates.

These are yes or no findings as the source states them, for the method shown. Sequences can lack the tags named with a protein.

In the case of “CdbS (BACTH fusions) (Myxococcus xanthus)”, the binding result was “no binding”.

For the origin of these results see paper PMC10313047, “During heat stress in Myxococcus xanthus, the CdbS PilZ domain protein, in concert with two PilZ-DnaK chaperones, perturbs chromosome organization and accelerates cell death” (PLOS Genetics, 2023).
